# This is one part of the list. The main result of the screen is listed elsewhere. These columns were measured beside it and carry no call. Compounds called inactive in the main read-out are mostly missing here. Words in brackets tell the shape of the fitted curve; partial curves, single points and poor fits give uncertain potencies.
# Experiment: qHTS Assay for Modulators of Lamin A Splicing
# Conditions: HeLa LMNA splicing GFP/RFP minigene ratio, 48 h
# How it was run: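 Read-out is the ratio of GFP to DsRed2 object intensity, acquired by 488 nm laser-scanning cytometry on HeLa lamin A-EGFP minigene reporter cells. Compound incubation 48 hrs at 37 °C in Opti-MEM with 2% FBS; DMSO 0.5% final.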
# [1] = measured here: GFP splicing reporter channel
# [2] = measured here: RFP viability control channel
SMILES,AC50 [1],AC50 [2]
Cc1ccc(S(=O)(=O)Nc2nc3ccccc3nc2Nc2cccc(S(=O)(=O)N3CCCC3)c2)cc1,"0.00447 µM [falling, full curve, poor fit]","2.82 µM [falling, full curve, poor fit]"
O=c1c(/C=N/O)coc2ccc3ccccc3c12,,"6.31 µM [falling, partial curve, poor fit]"
Cc1nc(NC(C)c2ccccc2)c2c3c(sc2n1)CCC3 (stereo unspecified),,"35.5 µM [rising, single point]"
O=C(CCCN1C(=O)/C(=C/c2cccc(Br)c2)SC1=S)Nc1ccccn1,,"7.94 µM [rising, partial curve, poor fit]"
CCc1cc2c(=O)nc3n(c2s1)Cc1ccccc1/C3=C(/O)c1cccc([N+](=O)[O-])c1,,"10 µM [rising, partial curve, poor fit]"
O=C(CCNc1cc(Cl)cc(Cl)c1)c1cccs1,"20 µM [falling, single point]",
Cc1cccc(N(CC(=O)NC2CCCC2)C(=O)c2nsc(Cl)c2Cl)c1C,"0.1 µM [rising, partial curve, poor fit]",
NC(CO)(CO)CO,"35.5 µM [falling, single point]","0.355 µM [falling, partial curve, poor fit]"
N#Cc1nc(-c2cccc(Cl)c2)oc1NCc1cccnc1,"12.6 µM [rising, single point]","11.2 µM [rising, partial curve]"
CCCNC(=O)CN1C(=O)NC(CCc2ccccc2)C1=O (stereo unspecified),,"3.16 µM [rising, single point]"
COc1cc2c(cc1OC)C(c1cc3ccccc3oc1=O)=NC(C)(C)C2,,"15.8 µM [rising, partial curve]"
COc1cc(SC#N)ccc1N=Cc1c(C)[nH]n(-c2ccc(C)c(C)c2)c1=O,"25.1 µM [falling, partial curve]","22.4 µM [falling, partial curve, poor fit]"
COc1cc(OC)cc(-c2nnc(Nc3nc4c(F)cccc4s3)o2)c1,"2.82 µM [rising, partial curve]","3.16 µM [rising, single point]"
CCOc1ccc(CCNC(=O)Cn2c(-c3cccs3)cc3ccccc32)cc1,"11.2 µM [rising, single point]","12.6 µM [rising, partial curve]"
C/C(=N\Nc1ccc([N+](=O)[O-])cc1)c1ccc(-n2nncc2C)cc1,,"35.5 µM [rising, single point]"
Cc1onc(-c2ccccc2Cl)c1C(=O)N/N=C(\N)COc1ccc(Cl)cc1,,"28.2 µM [rising, single point]"
CCOCCCNS(=O)(=O)c1ccc(NC(=O)c2ccc([N+](=O)[O-])cc2Cl)cc1,"35.5 µM [rising, single point]","31.6 µM [rising, single point]"
COc1ccc(C)cc1NC(=O)CSc1nnc(-c2cc3cccc(OC)c3o2)n1N,"25.1 µM [rising, single point]",
C=C(C)CC(c1ccccc1)N(C(C)=O)c1ccco1 (stereo unspecified),,"6.31 µM [falling, partial curve]"
Cc1ccc(NC(=S)N(CCCN(C)C)Cc2cc3cc4c(cc3[nH]c2=O)OCO4)c(C)c1,,"0.0251 µM [falling, full curve, poor fit]"

SMILES,AC50 [1],AC50 [2]
Cc1cccc(/C=C/C(=O)c2ccc(NC3=NCCCS3)cc2)c1,"12.6 µM [falling, partial curve]","35.5 µM [falling, single point]"
O=[N+]([O-])c1cc(Cl)cc(/C=N/NC(=S)Nc2cc(S(=O)(=O)N3CCOCC3)ccc2Cl)c1O,"35.5 µM [falling, single point]","14.1 µM [falling, partial curve, poor fit]"
CCOc1ccc(-n2ccnc2SCC(=O)Nc2cc(C)ccc2C)cc1,"28.2 µM [falling, partial curve]",
COc1ccc(OC)c(S(=O)(=O)Nc2ccc(O)c3ccccc23)c1,"35.5 µM [falling, single point]",
COc1cc(N=Cc2c(O)[nH]c3ccccc23)cc(OC)c1OC,,"20 µM [rising, partial curve]"
COc1cccc(-n2c(SCc3cccc(C)c3)nc3c([nH]c4ccccc43)c2=O)c1,"12.6 µM [falling, partial curve]","17.8 µM [falling, partial curve, poor fit]"
COc1ccccc1NC(=O)c1cc2ccc(O)cc2o/c1=N\O,,"15.8 µM [rising, single point]"
CCCc1nc(SCC(=O)N2c3ccccc3CC2C)c2c(C)c(C)sc2n1 (stereo unspecified),,"3.55 µM [rising, single point]"
COc1cc(C(=O)OC2CCCCC2=O)cc(OC)c1C (stereo unspecified),,"3.98 µM [rising, full curve, poor fit]"
COCn1c(COc2ccc3ccccc3c2)nc2ccccc21,,"31.6 µM [rising, single point]"
Nc1nc(CSC(=S)N2CCN(c3ccccc3)CC2)nc(Nc2ccc(F)cc2)n1,"10 µM [rising, single point]","22.4 µM [rising, single point]"
CCOc1ccccc1NC(=O)COC(=O)CC(C)(C)CC1=NS(=O)(=O)c2ccccc2N1,,"0.0355 µM [rising, full curve, poor fit]"
N#Cc1ccc(-n2c(-c3ccccc3)nnc2-c2ccccc2)cc1C#N,,"28.2 µM [rising, single point]"
CCOC(=O)c1c(-c2ccc(OC)cc2)csc1/N=C/C1=C(O)CCCC1=O,"10 µM [rising, partial curve]","12.6 µM [rising, partial curve]"
CC(NC(=O)C12CC3CC(CC(C3)C1)C2)C(=O)N/N=C/C1=C(N2CCOCC2)C(=C\c2ccccc2)/CC1 (stereo unspecified),,"20 µM [rising, partial curve, poor fit]"
Cc1ncc[nH]1,"2.51 µM [falling, single point]",
Cc1ccc(-n2c(C)cc(C(=O)CSc3nnnn3C)c2C)cc1,,"12.6 µM [rising, partial curve]"
CCCCNC(=S)Nc1ccc(C(F)(F)F)cc1,"31.6 µM [falling, partial curve]",
COc1ccc(NC(=O)CSc2nnc(-c3ccncc3)n2-c2ccccc2)cc1,"5.62 µM [rising, single point]",
Cn1c(CCc2ccccc2)n[nH]c1=S,"35.5 µM [falling, single point]","35.5 µM [falling, single point]"

SMILES,AC50 [1],AC50 [2]
O=C(CSc1n[nH]c(-c2ccc(F)cc2)n1)N1CCN(c2ccc(F)cc2)CC1,"0.447 µM [rising, full curve, poor fit]",
CC(=O)COc1ccc2c(-c3cccc([N+](=O)[O-])c3)cc(=O)oc2c1,,"8.91 µM [rising, partial curve, poor fit]"
CCS(=O)(=O)n1nc(-c2ccc(Cl)cc2)nc1SCc1ccccc1,"31.6 µM [rising, single point]","35.5 µM [rising, single point]"
Cc1ccc(S(=O)(=O)N(C)CC(=O)OCC(=O)N2CCCC2=O)cc1,,"6.31 µM [rising, partial curve]"
Cc1cccc(N2CCN(C(=O)NCc3ccc(Cl)cc3)CC2)c1,,"31.6 µM [rising, single point]"
S=c1nc(-c2csc3c2CCCC3)[nH][nH]1,"0.158 µM [falling, full curve]",
COc1cc(NC(=O)COC(=O)Cc2ccc(-c3ccccc3)cc2)cc(OC)c1,"14.1 µM [rising, single point]",
COc1ccc2nc(/N=C(\N)NC(=O)Nc3ccccc3)nc(C)c2c1,,"35.5 µM [rising, single point]"
Oc1ccc(Cl)cc1-c1cc(-c2cccc(Br)c2)n[nH]1,"17.8 µM [rising, partial curve]","12.6 µM [rising, partial curve]"
CCS(=O)(=O)CCSC(=N)N,,"35.5 µM [rising, single point]"
Cc1nc2ccn(Cc3ccco3)c(=O)c2cc1C(=O)NCc1ccc(Cl)cc1,,"0.2 µM [rising, full curve, poor fit]"
CCN(c1ccc(OC)cc1)S(=O)(=O)c1ccc2[nH]c3c(c2c1)CCCCC3,"11.2 µM [falling, partial curve]","11.2 µM [falling, partial curve]"
Cc1cccc(NC(=O)COc2cccc3c2CCN(Cc2ccccc2)C3=O)c1C,,"35.5 µM [rising, single point]"
CN1/C(=C\C(=O)c2cccs2)C(C)(C)c2ccccc21,,"35.5 µM [rising, single point]"
COc1ccc(C2(CNC(=O)c3cc([N+](=O)[O-])cc([N+](=O)[O-])c3)CCCC2)cc1OC,"35.5 µM [rising, single point]",
Cc1c(C(=O)c2ccc(Cl)cc2Cl)cnc2cc3c(cc12)OCO3,"22.4 µM [rising, single point]","35.5 µM [rising, single point]"
O=C(CN1C(=O)COc2ccccc21)N1CCc2ccccc21,,"15.8 µM [rising, single point]"
CCOC(=O)c1cnc2ccc(OC)cc2c1NCc1ccccc1,"3.55 µM [rising, single point]","20 µM [rising, partial curve, poor fit]"

# Ordered by molecular weight (smallest number first): 3 of the compounds above.
SMILES,AC50 [1],AC50 [2]
O=C(CN1C(=O)COc2ccccc21)N1CCc2ccccc21,,"15.8 µM [rising, single point]"
Cc1ccc(S(=O)(=O)N(C)CC(=O)OCC(=O)N2CCCC2=O)cc1,,"6.31 µM [rising, partial curve]"
CCN(c1ccc(OC)cc1)S(=O)(=O)c1ccc2[nH]c3c(c2c1)CCCCC3,"11.2 µM [falling, partial curve]","11.2 µM [falling, partial curve]"

# From PubChem BioAssay AID1487 (National Center for Advancing Translational Sciences (NCATS), 2009)
